Test results as given in publication PMC2828546, “Screening-based discovery of drug-like O-GlcNAcase inhibitor scaffolds” (Febs Letters, 2010).

Amino acid sequences for entries named in this document (tags omitted). Residues count along the entry.
UniProt Q0TR53, 31-624 limits assumed: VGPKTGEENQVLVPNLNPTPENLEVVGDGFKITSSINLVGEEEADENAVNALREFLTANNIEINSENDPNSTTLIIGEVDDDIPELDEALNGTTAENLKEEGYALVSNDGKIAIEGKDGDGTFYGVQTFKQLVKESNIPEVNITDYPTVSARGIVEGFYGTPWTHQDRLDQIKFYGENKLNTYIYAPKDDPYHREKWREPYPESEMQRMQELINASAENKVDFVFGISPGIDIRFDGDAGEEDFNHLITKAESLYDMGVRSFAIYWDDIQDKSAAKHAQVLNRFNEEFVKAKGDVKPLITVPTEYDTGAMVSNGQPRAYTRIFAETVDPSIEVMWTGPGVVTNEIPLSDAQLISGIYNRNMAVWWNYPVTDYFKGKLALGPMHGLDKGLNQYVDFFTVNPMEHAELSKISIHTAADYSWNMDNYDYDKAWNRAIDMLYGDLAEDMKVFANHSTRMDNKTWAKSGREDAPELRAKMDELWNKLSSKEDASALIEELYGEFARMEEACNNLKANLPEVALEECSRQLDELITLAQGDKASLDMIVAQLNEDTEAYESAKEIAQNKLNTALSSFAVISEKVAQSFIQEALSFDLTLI

Columns and labels:
CpOGA = CpOGA (Clostridium perfringens, UniProt Q0TR53); assay: biochemical
human hexosaminidase A/B = assay: HexA/B inhibition, fluorogenic 4MU-NAG substrate; assay type: biochemical; conditions: 230 μM substrate (Km), 15 min, pH 5.7
Experimental: Further kinetic experiments to determine the mode of inhibition were carried out according to the procedure described previously. […] IC50 measurements with CpOGA, hOGA and a mixture of human hexosaminidase A/B activities (Sigma A6152) against the compounds were performed using the fluorogenic 4MU-NAG substrate and standard reaction mixtures as described previously with some changes [[39,31,40]]. Standard reaction mixtures (50 μl) contained 0.2 nM CpOGA, 2 nM hOGA or 50 μ units unit/ml HexA/B in McIlvaine buffer (0.2 M Na2HPO4 mixed with 0.1 M citric acid to pH 5.7) supplemented with 0.1 mg/ml BSA. […] The reactions were run at room temperature for 7 min (CpOGA), 60 min (hOGA) or 15 min (HexA/B).

CC(=O)Nc1nnc(S(N)(=O)=O)s1 [Acetazolamide, acetazolamide]
IC50 (CpOGA): 80 ± 14 µM | IC50 (human hexosaminidase A/B): 32 ± 2 µM
